The values below come from article PMC10781284.

Chains of the proteins cited; added tags and fusions are not shown. Residues count along the entry.
UniProt P08962, 2-238: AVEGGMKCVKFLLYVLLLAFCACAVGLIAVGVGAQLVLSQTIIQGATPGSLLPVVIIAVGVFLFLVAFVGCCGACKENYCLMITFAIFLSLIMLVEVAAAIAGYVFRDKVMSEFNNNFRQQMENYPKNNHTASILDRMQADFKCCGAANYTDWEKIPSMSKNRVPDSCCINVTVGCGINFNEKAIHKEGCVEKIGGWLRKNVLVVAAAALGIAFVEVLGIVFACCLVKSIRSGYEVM

For at least one entry, the source does not settle the construct or the ends of the probe. At least one verdict rests on a figure or table, not on a statement of the authors.

The data set addresses CD63 (LAMP3, on HeLa exosomes) (human) (UniProt P08962). Description: exosome capture on aptamer-coated microfluidic channel, fluorescence imaging. The conditions noted are these: 5 µM aptamer for coating, whole exosomes, 3' (CH2)6-NH2, coupled to glass via PEI/glutaraldehyde, PBS (10 mM, pH 7.4) washes, 2% BSA block at room temperature, exosomes in culture medium, binding buffer of the aptamer not stated, native protein, single-stranded DNA.

“CACCCCACCTCGCTCCCGTGACACTAATGCTA [CD63 aptamer (CD63 adaptor strand)]”: the binding result is “binds”.
